According to PubChem BioAssay AID493014 (National Center for Advancing Translational Sciences (NCATS), 2011):
About 170 (0.05%) of roughly 340,000 compounds were called active. This list was built around the results that the source calls inconclusive (neither active nor inactive); the mix of calls is not that of the screen. The call rests on the fitted dose curve; in most records, active means well fitted inhibition curve with a large enough effect in the signal ratio, with a control signal flat (not every such curve was filed as active); inconclusive means small, poorly fitted or top-dose-only effect, or effect the other way, or a change in a side signal; inactive means flat fitted curve, though single readings scatter; the % refers to the signal ratio. Potencies of inconclusive entries are doubtful fits and often do not repeat.

assay: qHTS Assay to Find Inhibitors of Chronic Active B-Cell Receptor Signaling; conditions: ABC-DLBCL IkBa-CBG/CBR reporter, luminescence ratio (green luciferase fused to IkBa over red control in TMD8 lymphoma cells), 4 h; activity change, negative = inhibition: at 46.1 µM (top of the series) unless noted;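 on activity change, negative = inhibition: plate controls were basal doxycycline-induced cells for no effect and cells given 10 µM MG132 for full effect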
Procedure, shortened: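 TMD8 ABC-DLBCL cells carrying doxycycline-inducible green luciferase fused to IkappaBalpha plus unfused red luciferase were exposed to compounds (up to 46 uM) for 4 hrs at 37C. Activity came from the overlap-corrected green/red luminescence ratio.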
Potency means the concentration at half of the fitted maximal effect.

SMILES | activity change, negative = inhibition | Potency
CS(=O)(=O)Nc1nnc(CCc2ccccc2)s1 | inconclusive: -114% | 
Cc1n[nH]c(=O)c2c(NC(=O)CSc3nncs3)oc(C)c12 | inactive: 2.45% | 
COc1ccccc1NC(=O)Cn1c(=O)n(C)c(=O)c2sc3c(c21)COC(C)(C)C3 | inactive: -0.67% | 
COc1ccc(OC)c(NC(=O)c2cccnc2Sc2ccccc2)c1 | inconclusive: 0.172% | 
Cc1cc(C(=O)Nc2cccc(C(=O)O)c2)oc1C |  | inconclusive: 3.26 µM [falling, partial curve, poor fit]
COc1ccc(CCNC(=O)c2cc3c(cc2Cl)N2CCCCCC2=NS3(=O)=O)cc1 | inconclusive: 5.62% | 
CCOc1ccccc1CN1CCN(Cc2csc(C(C)=O)c2)CC1CCO (centres undefined) |  | inconclusive: 22.4 µM [falling, single point]
COC(=O)Nc1ccccc1C(=O)N1CCC(O)(c2ccc(Cl)cc2)CC1 | inactive: 5.71% | 
COc1ccc2[nH]c(=O)cc(C(=O)O)c2c1 | inactive: 4.19% | 
COc1cccc(/C=N/Nc2nccnc2Cl)c1O | inconclusive: -16.8% | 
COc1ccccc1Nc1nc(N)nc(CSc2nc(C)cc(C)n2)n1 | inconclusive: -17.7% | 
CCOC(=O)C1=C(CC)Nc2ccccc2N=C1NC(=O)Cn1cnc2ccccc2c1=O | inconclusive: 0.839% | 
COc1ccccc1NC(=O)C(=O)N/N=C(\C)CC(=O)Nc1ccc(OCc2ccccc2)cc1 | inconclusive: 317% | 
C=CCc1cc2c(oc(=O)c3ccccc32)c(C)c1O | inconclusive: 20.8% | 
Cc1ccc(OCCSc2nc3ccccc3n2CCC(=O)O)cc1 | inconclusive: -25.5% | 
Cc1csc(NC(=O)Nc2ccccc2[N+](=O)[O-])n1 |  | inconclusive: 17.8 µM [falling, single point]
COc1ccc(NC(=O)CN(C)CC(=O)c2c(C)[nH]c3ccccc23)cc1 | inconclusive: -5.17% | 
Cc1c(C(=O)Nc2ccccc2F)sc2nc3n(c(=O)c12)CCC3 | inconclusive: -18% | 
COc1cccc(NC(=O)CSc2nnc(-c3ccoc3C)n2CC2CCCO2)c1 (centres undefined) |  | inconclusive: 35.5 µM [falling, partial curve, poor fit]
Cc1nn(Cc2ccccc2)c(C)c1/C=N/NC(=O)c1ccccc1O |  | inconclusive: 35.5 µM [falling, single point]
CCCN(CCC)S(=O)(=O)c1ccc(C(=O)N2CCCc3ccccc32)cc1 | inconclusive: 16.9% | 
Cc1ccc(-c2cc(C(=O)Nc3sc4c(c3C(=O)NCc3ccco3)CCC4)[nH]n2)c(O)c1 | inactive: -8.46% | 
Cc1ccc(S(=O)(=O)NNC(=O)Nc2ccc(C)c(C)c2)c(C)c1 | inactive: 3.42% | 
Cc1nn(C(=O)c2ccco2)c(C)c1Sc1ccc(Cl)cc1 | inconclusive: -3.23% | 
COc1cc2c(C)nc3c(c(C)nn3-c3ccccc3)c2cc1OC | inactive: -3.03% | 
COc1ccc(N(C)S(=O)(=O)c2cccc(C(=O)NC3CCC(C)CC3)c2)cc1 (centres undefined) | inconclusive: -9.23% | 
O=C(Nc1ccc(Br)cc1)c1cc(S(=O)(=O)N2CCc3ccccc32)ccc1F |  | inconclusive: 7.94 µM [falling, partial curve]

SMILES | activity change, negative = inhibition | Potency
C[C@H](CO)N1C[C@H](C)[C@@H](CN(C)C(=O)Nc2ccc(C(F)(F)F)cc2)Oc2ccc(NC(=O)C3CC3)cc2C1=O | inconclusive: -1.55% | 
COc1ccc(-n2c3c(cc(C(=O)NCC(=O)c4ccccc4)c2=O)C(=O)CC(C)(C)C3)cc1 | inconclusive: 3.16% | 
CC(C)(C)NS(=O)(=O)c1ccc(NC(=O)Cc2ccccc2[N+](=O)[O-])cc1 |  | inconclusive: 15.8 µM [falling, partial curve, poor fit]
COc1ccc(-c2nc(-c3ccccc3)no2)c(OC)c1 |  | inconclusive: 25.9 µM [rising, single point]
FC(F)(F)c1cccc(-c2nc(-c3ccncc3)no2)c1 | inconclusive: 8.12% | 
CCn1c2ccccc2c2cc(CNCc3ccc(OC)cc3OC)ccc21 | inconclusive: 7.56% | 
CCOC(=O)NC(NC(=S)Nc1ccccc1[N+](=O)[O-])C(Cl)(Cl)Cl (centres undefined) | inactive: 1.92% | 
COc1cc(OC)cc(C(=O)NC(=S)Nc2cccnc2)c1 |  | inconclusive: 10 µM [falling, partial curve]
CCn1c(C(C)NC(=O)c2ccc(Cl)cc2)n[nH]c1=S (centres undefined) | inconclusive: 13.8% | 
COc1cccc(NC(=O)COC(=O)c2ccc(S(=O)(=O)NCc3ccco3)cc2)c1 |  | inconclusive: 4.61 µM [falling, full curve, poor fit]
COc1ccc2nc(NCCCNC(=O)c3cc(OC)c(OC)c(OC)c3)c(C#N)cc2c1 | inconclusive: 2.37% | 
CSc1cccc(N2CC(C(=O)Nc3ccccc3N3CCCC3)CC2=O)c1 (centres undefined) | inactive: 3.91% | 
COc1ccc(S(N)(=O)=O)cc1C(=O)OCCCOc1ccc(F)cc1 | inactive: 0.457% | 
O=C(N/N=C/C(Br)=C/c1ccccc1)c1cnccn1 |  | inconclusive: 25.1 µM [falling, single point]
CCCCOC(=O)c1ccc(NC(=S)NC(=O)c2c(Cl)cnn2C)cc1 |  | inconclusive: 12.6 µM [falling, partial curve]
N#C/C(=C(/O)COC(=O)COc1cccc(Br)c1)c1nc2ccccc2[nH]1 |  | inconclusive: 11.2 µM [falling, single point]
Cc1ccc(Cn2ncc3c(N4CCN(c5ccccc5C)CC4)ncnc32)cc1 | inconclusive: -7.6% | 
CC(Nc1[nH]c(=O)n(C)c(=O)c1N=O)c1ccccc1 (centres undefined) | inconclusive: -5.07% | 
Cc1nc(SCC(=O)NC(=O)NCc2ccco2)nc(C)c1C | inactive: 5.78% | 
COc1cccc(C(=O)NNC(=S)NC2CCCCC2)c1 |  | inconclusive: 9.2 µM [falling, partial curve, poor fit]
CC(=O)Nc1nnc(/C=C/c2cccc([N+](=O)[O-])c2)s1 | inconclusive: -1.18% | 
COc1ccc(C(=O)N(CN2CCCC2=O)c2ccc(C)cc2)cc1 | inconclusive: 0.295% | 
NCc1cc2c3c(c1)CCCN3CCC2 | inconclusive: 5.72% | 
O=C(COc1cccnc1[N+](=O)[O-])Nc1ccc2c(c1)CCC2 | inconclusive: 13% | 
C=CCC[C@@H](Cc1ccc(F)cc1)C(=O)OC[C@@H](NC(=O)[C@@H](CC=C)CC(=O)N(CCO)Cc1ccccc1)c1ccccc1 | inconclusive: -5.22% | 
CCN(Cc1cnn(C)c1)C(=O)c1cc(COc2ccc3c(c2)CCCC3)on1 | inconclusive: -190% | 
CC1CCCC(NC(=O)COC(=O)c2ccccc2[N+](=O)[O-])C1C (centres undefined) | inconclusive: -26.9% | 

SMILES | activity change, negative = inhibition | Potency
C#CCOCCOCCOCCNc1nc(N2CCN(C(=O)[C@H](CCCCN)n3cc([C@@H](N)C(C)CC)nn3)CC2)nc(N2CCN(C(=O)[C@H](Cc3cc4ccccc4[nH]3)n3cc([C@@H](N)CC(C)C)nn3)CC2)n1 (some centres undefined) | inactive: -14% | 
CCCCS/C(=C(/C#N)C(N)=O)c1cc2c([nH]1)CCCC2 |  | inconclusive: 20 µM [falling, single point]
COc1ccc(NC(=O)NC2CCCCC2C)cc1 (centres undefined) |  | inconclusive: 8.91 µM [falling, partial curve, poor fit]
COc1ccc(-c2ccc3oc(-c4ccsc4)cc(=O)c3c2)cn1 | inconclusive: -1.75% | 
COc1ccc(CCNC(=O)c2ccc3[nH]c(C)c(C)c3c2)cc1OC | inactive: 1.16% | 
CCC(=O)Nc1ccc(NC(=O)c2ccccn2)cn1 |  | inconclusive: 5.17 µM [falling, single point]
O=S(=O)(NCC(c1ccco1)N1CCN(c2ccc(F)cc2)CC1)c1cc(F)ccc1F (centres undefined) | inconclusive: 16% | 
Cc1cc2ncn(-c3ncnc4scc(-c5ccccc5)c34)c2cc1C | inactive: -1.22% | 
COc1ccc(CN(CCC(c2ccccc2)c2ccco2)C(=O)c2ccco2)cc1 (centres undefined) | inconclusive: 0.104% | 
Cc1ccccc1NC(=O)CSc1nc(N)c(C#N)cc1C#N |  | inconclusive: 25.9 µM [falling, single point]
Cc1ccccc1NC(=S)NC(=O)C1CCCCC1 | inconclusive: 12% | 
CN(C)S(=O)(=O)c1cccc(C(=O)OCC(=O)Nc2sccc2C(N)=O)c1 | inconclusive: -16% | 
CCOc1c(N2CCCCC2)c(=O)c1=O | inconclusive: -0.094% | 
COc1ccc(-c2cc(C(=O)Nc3c(C)nn(Cc4ccccc4)c3C)no2)cc1 | inconclusive: -1.29% | 
COc1cccc(NC(=O)CN(C)C(=O)Cc2ccc3c(c2)CCC3)c1 | inconclusive: 0.612% | 
COc1cc(OC)cc(-c2nnc(SCC(=O)N3CCCCC3)o2)c1 |  | inconclusive: 20.6 µM [falling, partial curve, poor fit]
CCS(=O)(=O)NCCc1cc2cc(C)c(C)cc2[nH]c1=O | inconclusive: -0.215% | 
Oc1ccccc1-c1cc(-c2ccc3c(c2)OCCO3)n[nH]1 | inconclusive: 280% | 
O=C(C[n+]1ccccc1)N/N=C/c1ccc(Cl)c(Cl)c1 | inactive: -0.253% | 
CCCC1=C(C(=O)OCC)C(c2ccc(F)cc2)n2ncnc2N1 (centres undefined) | inconclusive: 5.43% | 
O=C(Nc1nc2ccccc2[nH]1)C1CCCC1 | inconclusive: -6.86% | 
NNC(=O)CCc1nc2ccc(O)cc2[nH]1 | inconclusive: -0.363% | 
NS(=O)(=O)c1ccc(NS(=O)(=O)c2ccc(NC(=O)C3CC3)cc2)cc1 | inactive: 0.011% | 
O=C(COC(=O)CNC(=O)c1ccccc1F)Nc1ccc2[nH]c(=O)[nH]c2c1 |  | inconclusive: 6.51 µM [rising, partial curve, poor fit]
CC1(C(=O)OCC(=O)Nc2ccc3ccccc3c2)CC1(Cl)Cl (centres undefined) | inconclusive: -0.581% | 

Single values from the results shown:
Value of O=S(=O)(NCC(c1ccco1)N1CCN(c2ccc(F)cc2)CC1)c1cc(F)ccc1F (centres undefined) under activity change, negative = inhibition: inconclusive: 16%
Value of O=C(Nc1nc2ccccc2[nH]1)C1CCCC1 under activity change, negative = inhibition: inconclusive: -6.86%
Value of Cc1ccccc1NC(=S)NC(=O)C1CCCCC1 under activity change, negative = inhibition: inconclusive: 12%
Value of CCC(=O)Nc1ccc(NC(=O)c2ccccn2)cn1 under Potency: inconclusive: 5.17 µM [falling, single point]
Value of NS(=O)(=O)c1ccc(NS(=O)(=O)c2ccc(NC(=O)C3CC3)cc2)cc1 under activity change, negative = inhibition: inactive: 0.011%
Value of COc1cccc(NC(=O)CN(C)C(=O)Cc2ccc3c(c2)CCC3)c1 under activity change, negative = inhibition: inconclusive: 0.612%
